Results published in article PMC12411348.
Results are given in words; binding and its absence hold for the method and conditions named. Binding seen in cells or lysates may run through a third protein. These calls come from enrichment with a bait or labelling near it, and not all partners need be listed.

By UniProt entry, the sequences of proteins in these tests, tags left out.
UniProt P40337: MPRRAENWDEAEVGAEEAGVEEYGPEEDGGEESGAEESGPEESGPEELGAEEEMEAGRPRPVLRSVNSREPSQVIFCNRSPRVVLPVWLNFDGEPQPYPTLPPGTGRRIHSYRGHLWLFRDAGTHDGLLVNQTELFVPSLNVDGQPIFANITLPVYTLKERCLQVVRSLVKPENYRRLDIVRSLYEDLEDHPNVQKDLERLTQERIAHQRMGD
UniProt P55036: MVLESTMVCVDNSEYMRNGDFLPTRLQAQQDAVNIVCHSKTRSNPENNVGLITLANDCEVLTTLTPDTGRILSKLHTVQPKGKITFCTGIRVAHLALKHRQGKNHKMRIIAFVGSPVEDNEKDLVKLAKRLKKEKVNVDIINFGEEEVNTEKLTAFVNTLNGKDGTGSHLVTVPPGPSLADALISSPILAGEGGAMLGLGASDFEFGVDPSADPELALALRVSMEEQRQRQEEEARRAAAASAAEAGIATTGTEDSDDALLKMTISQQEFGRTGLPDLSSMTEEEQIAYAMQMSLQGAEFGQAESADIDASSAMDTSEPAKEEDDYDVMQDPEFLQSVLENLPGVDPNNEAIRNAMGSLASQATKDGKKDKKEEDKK

Target: Flag-pVHL (human) (UniProt P40337)
Test: affinity purification with mass spectrometry; HEK293T cells transfected with pCS2-Flag or pCS2-Flag-pVHL for 48 h, MG132 (10 μM) for 8 h, anti-Flag immunoprecipitation, LC–MS/MS (DIA)

binding: binds
Substance: endogenous PSMD4 (subunit of the 19S regulatory particle of the 26S proteasome) (from UniProt P55036 1-377)
